# Some results come without the dose or concentration used.
# Test: Taste-testing by four subjects (bitterness, saltiness, mouth/throat burn)
# Format: in vivo
# Settings: average of four subjects; scale 0-10
compound,measurement,value
"CC(C)Cc1ccc(C(C)C(=O)O)cc1.[Na] (stereo not drawn) [Pure API, sodium ibuprofen]","Bitterness, Average",3.75
same,"Mouth/Throat Burn, Average",8
same,"Saltiness, Average",4

# From patent publication US20160030345A1, “Core Compositions” (Johnson & Johnson Consumer Inc., priority 2014, published 2016)
